From PubChem BioAssay AID330 (DTP/NCI, 2004)
The list is a part of this screen's results and no random one: it is rich in T/C values a quarter to a half above the control, in often repeated tests (any T/C) and in doses without a T/C. Further doses and runs are listed elsewhere. T/C is the treated group as % of the vehicle group. Some entries give survivors of the animals treated and no T/C: the source files T/C as zero there, which appears to mark a toxic dose or a test without result, not a measured value. Some doses without a T/C left all or most animals alive at the check, yet need not have been tolerated: survival well below the control is almost never listed, so the zero probably covers shortened survival too. Survivors were counted at the toxicity check, usually on the fifth day, unless a day is given; later deaths do not show. Schedule codes are those of the source, read here as Q, the interval in days (D) or hours (H), X, the number of doses. Some entries hold several experiments; their values stand side by side, smallest first. For survival time, this PubChem deposit counts one and a half times the control or more as active, and values a quarter to a half above the control carry no call in these data; other NCI protocols may use other cut-offs. Some T/C values carry the count of animals alive at the toxicity check (mostly the fifth day); without a count, all were alive then. Counts like (3×) stand for listed records that agree. Some schedule codes hold Z or #, which are not explained here.

System: P388 leukemia ip, CD2F1 mice, survival T/C
Test: NCI In Vivo Anticancer Drug Screen. Data for tumor model P388 Leukemia (intraperitoneal) in CD2F1 (CDF1) mice
Settings: T/C endpoint: median survival time, higher T/C = longer survival

COc1cccc2c1C(=O)c1c(O)c3c(c(O)c1C2=O)C[C@@](O)(C(=O)CO)C[C@@H]3OC1CC(N)C(O)C(C)O1 (some centres not stated)
T/C (dose: 6.7 mg/kg/injection, schedule: Q01DX001 (ip), vehicle: saline, evaluated on day 23): 171 % of control
T/C (dose: 6.7 mg/kg/injection, schedule: Q01DX001 (ip), vehicle: saline, evaluated on day 30): 98, 141 (2×), 144, 154, 162, 168 (2×), 169, 170, 171, 173, 177 (2×), 180, 181, 182, 183 (3×), 184, 185, 186 (2×), 187 (2×), 188, 189, 190, 194, 196 (2×), 197, 198, 200, 201, 203 (2×), 205 (3×), 208, 214, 215 (2×), 216, 217 (2×), 218 (2×), 228, 232, 233, 243, 254, 284 % of control
T/C (dose: 6.7 mg/kg/injection, schedule: Q01DX001 (ip), vehicle: saline, evaluated on day 45): 156, 166, 188, 189, 200, 202, 240, 247, 252 % of control
T/C (dose: 6.7 mg/kg/injection, schedule: Q01DX001 (ip), vehicle: saline, evaluated on day 46): 191 % of control
T/C (dose: 6.7 mg/kg/injection, schedule: Q01DX001 (ip), vehicle: saline, evaluated on day 47): 186 and 200 % of control
T/C (dose: 6.7 mg/kg/injection, schedule: Q01DX001 (ip), vehicle: saline, evaluated on day 56): 177 % of control
T/C (dose: 6.7 mg/kg/injection, schedule: Q01DX001 (ip), vehicle: saline, evaluated on day 60): 169, 180, 183, 198, 198 [9 of 10 alive], 216, 271, 275, 289 % of control
survivor count (dose: 6.7 mg/kg/injection, schedule: Q01DX001 (ip), vehicle: saline): 0 of 6
T/C (dose: 7.5 mg/kg/injection, schedule: Q04DX003 (ip), vehicle: saline, evaluated on day 45): 119, 138, 143, 162, 184, 221 [7 of 8 alive], 227, 240, 247, 248 % of control
T/C (dose: 7.5 mg/kg/injection, schedule: Q04DX003 (ip), vehicle: saline, evaluated on day 60): 382 % of control
survivor count (dose: 7.5 mg/kg/injection, schedule: Q04DX003 (ip), vehicle: saline): 8 of 8
T/C (dose: 8.0 mg/kg/injection, schedule: Q01DX001 (ip), vehicle: Klucel (hydroxypropylcellulose) (HPC)): 142 % of control
T/C (dose: 8.0 mg/kg/injection, schedule: Q01DX001 (ip), vehicle: saline with Tween-80): 149 % of control
T/C (dose: 8.0 mg/kg/injection, schedule: Q01DX001 (ip), vehicle: saline, evaluated on day 3): 196 % of control
T/C (dose: 8.0 mg/kg/injection, schedule: Q01DX001 (ip), vehicle: saline, evaluated on day 5): 92, 97, 125, 132, 138, 148, 150, 158 % of control
T/C (dose: 8.0 mg/kg/injection, schedule: Q01DX001 (ip), vehicle: saline, evaluated on day 6): 216 % of control
T/C (dose: 8.0 mg/kg/injection, schedule: Q01DX001 (ip), vehicle: saline, evaluated on day 7): 166, 176, 197, 200 % of control
T/C (dose: 8.0 mg/kg/injection, schedule: Q01DX001 (ip), vehicle: saline, evaluated on day 9): 150 and 157 % of control
T/C (dose: 8.0 mg/kg/injection, schedule: Q01DX001 (ip), vehicle: saline, evaluated on day 30): 167, 200, 235 % of control
T/C (dose: 8.0 mg/kg/injection, schedule: Q01DX001 (ip), vehicle: saline, evaluated on day 35): 181 % of control
T/C (dose: 8.0 mg/kg/injection, schedule: Q01DX001 (ip), vehicle: saline, evaluated on day 45): 142 % of control
T/C (dose: 8.0 mg/kg/injection, schedule: Q01DX001 (ip), vehicle: saline, evaluated on day 60): 137 and 177 % of control
T/C (dose: 8.0 mg/kg/injection, schedule: Q01DX001 (iv), vehicle: saline): 144 % of control
survivor count (dose: 8.0 mg/kg/injection, schedule: Q01DX005 (ip), vehicle: water): 10 of 10 and 4 of 4
T/C (dose: 8.0 mg/kg/injection, schedule: Q01DX009 (ip), vehicle: water, evaluated on day 5): 66 % of control
T/C (dose: 8.0 mg/kg/injection, schedule: Q01DX009 (ip), vehicle: water, evaluated on day 30): 95 and 103 % of control
survivor count (dose: 8.0 mg/kg/injection, schedule: Q01DX009 (ip), vehicle: water): 1 of 6, 3 of 6, 4 of 6, 6 of 6
T/C (dose: 8.0 mg/kg/injection, schedule: Q04DX003 (ip), vehicle: saline, evaluated on day 5): 83, 113, 115, 163 % of control
T/C (dose: 8.0 mg/kg/injection, schedule: Q04DX003 (ip), vehicle: saline, evaluated on day 8): 185 % of control
T/C (dose: 8.0 mg/kg/injection, schedule: Q04DX003 (ip), vehicle: saline, evaluated on day 9): 216 % of control
T/C (dose: 8.0 mg/kg/injection, schedule: Q04DX003 (ip), vehicle: saline, evaluated on day 30): 127, 130, 139 [5 of 6 alive], 142, 143, 156, 157, 159, 161, 166, 169, 173, 174 (2×), 178, 181, 190, 196, 274 % of control
T/C (dose: 8.0 mg/kg/injection, schedule: Q04DX003 (ip), vehicle: saline, evaluated on day 45): 130 [7 of 8 alive], 159, 215 % of control
T/C (dose: 8.0 mg/kg/injection, schedule: Q04DX003 (ip), vehicle: saline, evaluated on day 60): 113 [7 of 8 alive] and 118 % of control
T/C (dose: 8.0 mg/kg/injection, schedule: Q04DX003 (ip), vehicle: water, evaluated on day 30, list 1 of 2): 111, 115, 118, 121, 133, 137, 138, 140, 148, 155 (2×), 157, 161, 163 (3×), 164, 166, 168 (2×), 171, 174, 178, 180, 181, 182, 185, 186, 192 (2×), 200, 201, 203, 208, 215 % of control
T/C (dose: 8.0 mg/kg/injection, schedule: Q04DX003 (ip), vehicle: water, evaluated on day 30, list 2 of 2): 105, 113, 116 [5 of 6 alive on day 9], 118, 129, 136, 137, 138, 145, 152, 155 (2×), 158, 162, 163 (3×), 166, 167, 168, 169, 173, 175, 178, 180, 182 [5 of 6 alive], 184, 185, 188, 192, 198, 200, 202, 203, 209 % of control
T/C (dose: 8.0 mg/kg/injection, schedule: Q04DX003 (ip), vehicle: water, evaluated on day 35): 125, 142, 146, 151, 152, 154 [5 of 6 alive on day 9], 158, 166, 168, 170, 171, 177, 185, 190 % of control
T/C (dose: 8.0 mg/kg/injection, schedule: Q04DX003 (ip), vehicle: water, evaluated on day 40): 133, 161, 163, 173, 197 % of control
T/C (dose: 8.0 mg/kg/injection, schedule: Q04DX003 (ip), vehicle: water, evaluated on day 45): 87, 99, 111, 124, 130 [5 of 6 alive on day 9], 140 (2×), 145, 150 (2×), 151, 152, 154, 160 (4×), 161, 162 (2×), 163 (2×), 164, 165 (2×), 167, 168, 169 [2 of 3 alive], 170, 171 (3×), 171 [5 of 6 alive on day 9], 173, 174, 175, 181, 182, 187, 188, 189, 190 (2×), 192 (2×), 193, 194, 194 [5 of 6 alive], 197, 225 (2×), 301 % of control
T/C (dose: 8.0 mg/kg/injection, schedule: Q04DX003 (ip), vehicle: water, evaluated on day 46): 95 % of control
T/C (dose: 8.0 mg/kg/injection, schedule: Q04DX003 (ip), vehicle: water, evaluated on day 50): 130, 133, 150, 166, 192 % of control
T/C (dose: 8.0 mg/kg/injection, schedule: Q04DX003 (ip), vehicle: water, evaluated on day 60): 120 and 165 % of control
survivor count (dose: 8.0 mg/kg/injection, schedule: Q04DX003 (ip), vehicle: water): 2 of 3, 4 of 6, 6 of 6
T/C (dose: 8.0 mg/kg/injection, schedule: Q## X001 (ip), vehicle: saline): 92, 97, 125, 132, 148, 150, 157 % of control
T/C (dose: 8.44 mg/kg/injection, schedule: Q01DX001 (iv), vehicle: saline): 127 and 137 % of control
T/C (dose: 9.0 mg/kg/injection, schedule: Q04DX003 (ip), vehicle: saline, evaluated on day 45): 336 % of control
T/C (dose: 9.0 mg/kg/injection, schedule: Q04DX003 (ip), vehicle: saline, evaluated on day 60): 166, 174, 255, 271 % of control
T/C (dose: 10.0 mg/kg/injection, schedule: Q01DX001 (ip), vehicle: saline, evaluated on day 5): 128 [8 of 9 alive], 162, 266, 267, 299 % of control
T/C (dose: 10.0 mg/kg/injection, schedule: Q01DX001 (ip), vehicle: saline, evaluated on day 7): 133 and 180 % of control
T/C (dose: 10.0 mg/kg/injection, schedule: Q01DX001 (ip), vehicle: saline, evaluated on day 9): 151 and 170 % of control
T/C (dose: 10.0 mg/kg/injection, schedule: Q01DX001 (ip), vehicle: saline, evaluated on day 11): 139 % of control
T/C (dose: 10.0 mg/kg/injection, schedule: Q01DX001 (ip), vehicle: saline, evaluated on day 20): 192 % of control
T/C (dose: 10.0 mg/kg/injection, schedule: Q01DX001 (ip), vehicle: saline, evaluated on day 23): 199 % of control
